Measurements: patent US20150132305A1
No constants are given. Whether binding was seen depends on the method and setting. Some results given as binding are weak or reduced against the parent protein; the word gives no strength. For part of these data: Tags and fused reporters may be left off the sequences shown.

T1: recombinant Cad-11 EC1 human IgG1 fusion protein (R&D Systems Cat. No. 1790-CA-050) (human) (UniProt P55287)
T1 sequence: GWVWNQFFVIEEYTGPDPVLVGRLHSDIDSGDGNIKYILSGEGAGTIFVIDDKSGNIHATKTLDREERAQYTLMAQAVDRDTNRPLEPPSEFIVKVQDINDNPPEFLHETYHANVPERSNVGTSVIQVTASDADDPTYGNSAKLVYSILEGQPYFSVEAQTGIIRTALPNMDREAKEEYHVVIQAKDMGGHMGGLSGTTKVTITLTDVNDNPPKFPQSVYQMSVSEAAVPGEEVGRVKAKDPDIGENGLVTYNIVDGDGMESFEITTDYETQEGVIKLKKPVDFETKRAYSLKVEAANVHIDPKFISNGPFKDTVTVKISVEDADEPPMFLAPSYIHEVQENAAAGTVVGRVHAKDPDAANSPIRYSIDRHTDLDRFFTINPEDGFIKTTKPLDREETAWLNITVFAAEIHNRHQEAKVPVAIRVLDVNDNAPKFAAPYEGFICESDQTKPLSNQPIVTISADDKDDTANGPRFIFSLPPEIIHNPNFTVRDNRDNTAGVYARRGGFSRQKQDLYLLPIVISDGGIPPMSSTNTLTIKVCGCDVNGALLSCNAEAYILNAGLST

T2: Cad-24 37-mer peptide linked to BSA (UniProt Q86UP0)
T2 sequence (peptide, linked to BSA, looked up): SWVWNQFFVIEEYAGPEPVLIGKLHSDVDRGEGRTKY

T3: Cad-8 37-mer peptide linked to BSA (UniProt P55286)
T3 sequence (peptide, linked to BSA, looked up): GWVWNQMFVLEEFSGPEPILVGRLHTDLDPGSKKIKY

T4: Cad-20 37-mer peptide linked to BSA (UniProt Q9HBT6)
T4 sequence (peptide, linked to BSA, looked up): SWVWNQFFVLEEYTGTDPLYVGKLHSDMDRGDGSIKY

T5: Cad-9 37-mer peptide linked to BSA (UniProt Q9ULB4)
T5 sequence (peptide, linked to BSA, looked up): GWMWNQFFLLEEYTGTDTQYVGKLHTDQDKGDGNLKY

T6: Cad-7 37-mer peptide linked to BSA (UniProt Q9ULB5)
T6 sequence (peptide, linked to BSA, looked up): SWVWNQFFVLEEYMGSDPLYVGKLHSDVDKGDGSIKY

T7: Cad-18 37-mer peptide linked to BSA (UniProt Q13634)
T7 sequence (peptide, linked to BSA, looked up): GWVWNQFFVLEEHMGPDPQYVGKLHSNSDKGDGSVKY


How the values were obtained:
[1] = target: T1, recombinant Cad-11 EC1 human IgG1 fusion protein (R&D Systems Cat. No. 1790-CA-050) (human); assay: competition ELISA
[2] = target: T1, recombinant Cad-11 EC1 human IgG1 fusion protein (R&D Systems Cat. No. 1790-CA-050) (human); assay: competition ELISA: antibody dilution series premixed with 0.1 µg/ml biotinylated SYN0012/H1M1, plate coated with recombinant human Cad-11 EC1 fusion protein, streptavidin-HRP, OD450
[3] = target: T2, Cad-24 37-mer peptide linked to BSA; assay: ELISA, BSA-coupled 37-mer cadherin peptide coated at 500 ng/ml, A450
[4] = target: T3, Cad-8 37-mer peptide linked to BSA; assay: as above
[5] = target: T4, Cad-20 37-mer peptide linked to BSA; assay: as above
[6] = target: T5, Cad-9 37-mer peptide linked to BSA; assay: as above
[7] = target: T6, Cad-7 37-mer peptide linked to BSA; assay: as above
[8] = target: T7, Cad-18 37-mer peptide linked to BSA; assay: as above
[9] = target: T1, recombinant Cad-11 EC1 human IgG1 fusion protein (R&D Systems Cat. No. 1790-CA-050) (human); assay: competition ELISA on coated recombinant human Cad-11 EC1 fusion protein against biotinylated SYN0012 (0.1 µg/ml)

binding [1] | binding [2] | binding [3] | binding [4] | binding [5] | binding [6] | binding [7] | binding [8] | binding [9] | Binder
binds | binds | binds | binds | binds | binds | binds | binds |  | SDP121 humanized anti-Cad-11 EC1 antibody (Vκ3/VH2) (antibody, IgG4, V domains shown) VH: EVQLVQSGAEVKKPGASVKISCKASGYSFTGYFMNWVKQAPGQGLEWIGRINPYTGDTFYNQKFKGRATLTVDKSTSTAYMELSSLRSEDTAVYYCGRLGSRYWYFDVWGQGTTVTVSS VL: DVVMTQTPLSSPVTLGQPASISCRSSQSIIHSNGNTYLEWYLQKPGQSPQLLIYKVSNRFSGVPDRFSGSGSGTDFTLKISRVEAEDVGVYYCFQGSHVPWTFGQGTKLEIK
binds | binds | binds | binds | binds |  | binds | binds |  | SDP111 humanized anti-Cad-11 EC1 antibody (Vκ3/VH1) (antibody, IgG4, V domains shown) VH: EVQLVQSGPELKKPGASVKISCKASGYSFTGYFMNWVKQAHGQGLEWIGRINPYTGDTFYNQKFKGRATLTVDKSSSTAYMELVSLSSEDSAVYYCGRLGSRYWYFDVWGQGTTVTVSS VL: DVVMTQTPLSSPVTLGQPASISCRSSQSIIHSNGNTYLEWYLQKPGQSPQLLIYKVSNRFSGVPDRFSGSGSGTDFTLKISRVEAEDVGVYYCFQGSHVPWTFGQGTKLEIK
binds | binds | binds | binds | binds | binds | binds | binds |  | SDP101 humanized anti-Cad-11 EC1 antibody (Vκ2/VH5) (antibody, IgG4, V domains shown) VH: EVQLVQSGAEVKKPGASVKVSCKASGYSFTGYFMNWVRQAPGQGLEWIGRINPYTGDTFYNQKFKGRVTITVDKSTSTAYMELSSLRSEDTAVYYCGRLGSRYWYFDVWGQGTTVTVSS VL: DVLMTQTPLSSPVTLGQPASISCRSSQSIIHSNGNTYLEWYLQKPGQSPQLLIYKVSNRFSGVPDRFSGSGSGTDFTLKISRVEAEDVGVYYCFQGSHVPWTFGQGTKLEIK
binds | binds | binds | binds | binds | binds | binds | binds |  | SDP151 humanized anti-Cad-11 EC1 antibody (Vκ3/VH5) (antibody, IgG4, V domains shown) VH: EVQLVQSGAEVKKPGASVKVSCKASGYSFTGYFMNWVRQAPGQGLEWIGRINPYTGDTFYNQKFKGRVTITVDKSTSTAYMELSSLRSEDTAVYYCGRLGSRYWYFDVWGQGTTVTVSS VL: DVVMTQTPLSSPVTLGQPASISCRSSQSIIHSNGNTYLEWYLQKPGQSPQLLIYKVSNRFSGVPDRFSGSGSGTDFTLKISRVEAEDVGVYYCFQGSHVPWTFGQGTKLEIK
binds | binds | binds | binds | binds | binds | binds | binds |  | SDP091 humanized anti-Cad-11 EC1 antibody (Vκ2/VH4) (antibody, IgG4, V domains shown) VH: EVQLVQSGAEVKKPGASVKVSCKASGYSFTGYFMNWVRQAPGQGLEWIGRINPYTGDTFYNQKFKGRATITVDKSTSTAYMELSSLRSEDTAVYYCGRLGSRYWYFDVWGQGTTVTVSS VL: DVLMTQTPLSSPVTLGQPASISCRSSQSIIHSNGNTYLEWYLQKPGQSPQLLIYKVSNRFSGVPDRFSGSGSGTDFTLKISRVEAEDVGVYYCFQGSHVPWTFGQGTKLEIK

More lines, now with the values behind:

Binder | binding [1] | binding [2] | binding [3] | binding [4] | binding [5] | binding [6] | binding [7] | binding [8] | binding [9]
SDP061 humanized anti-Cad-11 EC1 antibody (Vκ2/VH1) (antibody, IgG4, V domains shown) VH: EVQLVQSGPELKKPGASVKISCKASGYSFTGYFMNWVKQAHGQGLEWIGRINPYTGDTFYNQKFKGRATLTVDKSSSTAYMELVSLSSEDSAVYYCGRLGSRYWYFDVWGQGTTVTVSS VL: DVLMTQTPLSSPVTLGQPASISCRSSQSIIHSNGNTYLEWYLQKPGQSPQLLIYKVSNRFSGVPDRFSGSGSGTDFTLKISRVEAEDVGVYYCFQGSHVPWTFGQGTKLEIK | binds | binds | binds | binds | binds |  |  |  | 
SDP141 humanized anti-Cad-11 EC1 antibody (Vκ3/VH4) (antibody, IgG4, V domains shown) VH: EVQLVQSGAEVKKPGASVKVSCKASGYSFTGYFMNWVRQAPGQGLEWIGRINPYTGDTFYNQKFKGRATITVDKSTSTAYMELSSLRSEDTAVYYCGRLGSRYWYFDVWGQGTTVTVSS VL: DVVMTQTPLSSPVTLGQPASISCRSSQSIIHSNGNTYLEWYLQKPGQSPQLLIYKVSNRFSGVPDRFSGSGSGTDFTLKISRVEAEDVGVYYCFQGSHVPWTFGQGTKLEIK | binds | binds | binds | binds | binds | binds | binds | binds | 
SDP071 humanized anti-Cad-11 EC1 antibody (Vκ2/VH2) (antibody, IgG4, V domains shown) VH: EVQLVQSGAEVKKPGASVKISCKASGYSFTGYFMNWVKQAPGQGLEWIGRINPYTGDTFYNQKFKGRATLTVDKSTSTAYMELSSLRSEDTAVYYCGRLGSRYWYFDVWGQGTTVTVSS VL: DVLMTQTPLSSPVTLGQPASISCRSSQSIIHSNGNTYLEWYLQKPGQSPQLLIYKVSNRFSGVPDRFSGSGSGTDFTLKISRVEAEDVGVYYCFQGSHVPWTFGQGTKLEIK | binds | binds | binds | binds | binds |  |  | binds | 
SDP081 humanized anti-Cad-11 EC1 antibody (Vκ2/VH3) (antibody, IgG4, V domains shown) VH: EVQLVQSGAEVKKPGASVKISCKASGYSFTGYFMNWVRQAPGQGLEWIGRINPYTGDTFYNQKFKGRATLTVDKSTSTAYMELSSLRSEDTAVYYCGRLGSRYWYFDVWGQGTTVTVSS VL: DVLMTQTPLSSPVTLGQPASISCRSSQSIIHSNGNTYLEWYLQKPGQSPQLLIYKVSNRFSGVPDRFSGSGSGTDFTLKISRVEAEDVGVYYCFQGSHVPWTFGQGTKLEIK | binds | binds | binds | binds | binds | binds | binds | binds | 
SDP011 humanized anti-Cad-11 EC1 antibody (Vκ1/VH1) (antibody, IgG4, V domains shown) VH: EVQLVQSGPELKKPGASVKISCKASGYSFTGYFMNWVKQAHGQGLEWIGRINPYTGDTFYNQKFKGRATLTVDKSSSTAYMELVSLSSEDSAVYYCGRLGSRYWYFDVWGQGTTVTVSS VL: DVLMTQTPLSSPVTLGQPASISCRSSQSIIHSNGNTYLEWYLQKPGQSPQLLIYKVSNRFSGVPDRFTGSGSGTDFTLKISRVEAEDVGVYYCFQGSHVPWTFGQGTKLEIK | binds |  | binds | binds | binds |  | binds | binds | binds
SDP131 humanized anti-Cad-11 EC1 antibody (Vκ3/VH3) (antibody, IgG4, V domains shown) VH: EVQLVQSGAEVKKPGASVKISCKASGYSFTGYFMNWVRQAPGQGLEWIGRINPYTGDTFYNQKFKGRATLTVDKSTSTAYMELSSLRSEDTAVYYCGRLGSRYWYFDVWGQGTTVTVSS VL: DVVMTQTPLSSPVTLGQPASISCRSSQSIIHSNGNTYLEWYLQKPGQSPQLLIYKVSNRFSGVPDRFSGSGSGTDFTLKISRVEAEDVGVYYCFQGSHVPWTFGQGTKLEIK | binds | binds | binds | binds | binds | binds | binds | binds | 
